In one test the target is T1, Lap2-TAP (S. pombe) (UniProt O94544).
T1 sequence: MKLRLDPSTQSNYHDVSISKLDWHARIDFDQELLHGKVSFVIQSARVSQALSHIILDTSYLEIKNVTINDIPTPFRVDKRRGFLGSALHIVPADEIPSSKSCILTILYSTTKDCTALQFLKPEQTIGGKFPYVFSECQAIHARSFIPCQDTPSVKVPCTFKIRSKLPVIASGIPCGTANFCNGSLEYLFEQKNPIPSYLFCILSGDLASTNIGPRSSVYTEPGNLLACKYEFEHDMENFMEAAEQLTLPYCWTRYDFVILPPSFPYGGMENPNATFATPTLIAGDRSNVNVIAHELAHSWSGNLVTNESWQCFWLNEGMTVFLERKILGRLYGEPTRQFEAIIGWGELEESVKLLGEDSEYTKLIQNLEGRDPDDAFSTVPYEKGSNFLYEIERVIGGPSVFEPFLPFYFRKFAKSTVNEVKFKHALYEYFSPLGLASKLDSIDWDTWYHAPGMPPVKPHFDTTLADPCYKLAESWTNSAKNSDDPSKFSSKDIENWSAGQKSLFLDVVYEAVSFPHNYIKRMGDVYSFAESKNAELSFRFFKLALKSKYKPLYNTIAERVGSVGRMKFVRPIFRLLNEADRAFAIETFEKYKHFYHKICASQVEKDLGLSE
The test is described as follows: co-IP.

Chains of the proteins cited; added tags and fusions are not shown. Lines headed by an entry give the natural chain unless they say otherwise; changes in a name come on top.
UniProt Q9UT61: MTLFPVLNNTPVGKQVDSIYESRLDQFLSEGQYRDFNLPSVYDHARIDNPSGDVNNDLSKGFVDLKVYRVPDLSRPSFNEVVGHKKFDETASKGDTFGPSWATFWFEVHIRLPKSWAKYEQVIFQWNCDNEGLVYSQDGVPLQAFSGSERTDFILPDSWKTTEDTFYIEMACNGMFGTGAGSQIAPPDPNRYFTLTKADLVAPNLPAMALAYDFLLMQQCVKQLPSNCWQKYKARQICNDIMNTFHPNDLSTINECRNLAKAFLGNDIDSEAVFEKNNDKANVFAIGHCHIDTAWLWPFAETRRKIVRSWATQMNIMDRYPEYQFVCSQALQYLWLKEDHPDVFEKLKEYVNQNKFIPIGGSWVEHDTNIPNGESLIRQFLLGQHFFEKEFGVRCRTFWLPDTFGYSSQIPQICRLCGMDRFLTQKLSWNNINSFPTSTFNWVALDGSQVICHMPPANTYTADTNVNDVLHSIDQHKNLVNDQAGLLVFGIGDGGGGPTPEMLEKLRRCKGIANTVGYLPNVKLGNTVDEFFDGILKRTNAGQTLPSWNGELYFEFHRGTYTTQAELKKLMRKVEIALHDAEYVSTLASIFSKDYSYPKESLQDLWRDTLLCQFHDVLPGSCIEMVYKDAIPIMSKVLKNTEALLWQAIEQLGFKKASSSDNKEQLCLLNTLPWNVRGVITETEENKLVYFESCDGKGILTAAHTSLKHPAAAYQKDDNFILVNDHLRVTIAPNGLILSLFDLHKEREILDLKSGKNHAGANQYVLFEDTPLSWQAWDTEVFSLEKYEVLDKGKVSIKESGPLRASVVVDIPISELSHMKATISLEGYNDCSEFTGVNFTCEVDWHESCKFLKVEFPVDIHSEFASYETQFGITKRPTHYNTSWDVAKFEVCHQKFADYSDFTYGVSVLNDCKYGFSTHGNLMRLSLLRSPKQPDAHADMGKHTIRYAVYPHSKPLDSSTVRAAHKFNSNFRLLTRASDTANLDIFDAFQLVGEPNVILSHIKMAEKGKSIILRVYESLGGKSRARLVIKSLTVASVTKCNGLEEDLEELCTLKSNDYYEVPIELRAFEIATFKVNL

Test [1] concerns the target T2, GST-Nbr1(53-129) (S. pombe) (UniProt Q9P792).
T2 sequence: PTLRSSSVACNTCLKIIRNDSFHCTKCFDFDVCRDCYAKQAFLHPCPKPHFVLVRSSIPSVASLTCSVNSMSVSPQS
The test is described as follows: pull-down.

The target in the next test is Ape4-TAP (S. pombe). The test is described as follows: co-IP.
A further test concerns the target Ams1-mCherry (S. pombe) (UniProt Q9UT61). The test is described as follows: co-IP.
Test [2] addresses Ape4 (full length) of the Ape4-Nbr1 fusion protein (S. pombe). The test is described as follows: cryo-EM structure.
Test [3] has as its target Ams1 (full length) of the Ams1-Nbr1 fusion protein (S. pombe) (UniProt Q9UT61). The test is described as follows: cryo-EM structure.

Results are given in words; binding and its absence hold for the method and conditions named. For some of these results: A result given as binding can be weak or reduced; the word gives no strength. For some of these results: Tags and fused reporters may be left off the sequences shown. For some of these results: Binding seen in cells or lysates may run through a third protein.

Turning to “Ams1-13Myc (from UniProt Q9UT61) (enzyme)”, in the test with Lap2-TAP (S. pombe), the binding entry is reported as “no binding”.

With Ams1-FFH (from UniProt Q9UT61) (enzyme), the binding entry in test [1] is listed as “binds”.

Consider “Ape2 (endogenous) (S. pombe (endogenous in S. pombe)) (enzyme)”, for which the binding result with Lap2-TAP (S. pombe) is “binds”.

With “Ape4 (endogenous) (S. pombe (endogenous in S. pombe)) (enzyme)”, the binding result with Lap2-TAP (S. pombe) is reported as “no binding”.

In the case of Ape4-FFH (S. pombe) (enzyme), the binding result in test [1] is recorded as “binds”.

B1: Lap2 (endogenous) (enzyme, UniProt O94544 1-612)
chain: MKLRLDPSTQSNYHDVSISKLDWHARIDFDQELLHGKVSFVIQSARVSQALSHIILDTSYLEIKNVTINDIPTPFRVDKRRGFLGSALHIVPADEIPSSKSCILTILYSTTKDCTALQFLKPEQTIGGKFPYVFSECQAIHARSFIPCQDTPSVKVPCTFKIRSKLPVIASGIPCGTANFCNGSLEYLFEQKNPIPSYLFCILSGDLASTNIGPRSSVYTEPGNLLACKYEFEHDMENFMEAAEQLTLPYCWTRYDFVILPPSFPYGGMENPNATFATPTLIAGDRSNVNVIAHELAHSWSGNLVTNESWQCFWLNEGMTVFLERKILGRLYGEPTRQFEAIIGWGELEESVKLLGEDSEYTKLIQNLEGRDPDDAFSTVPYEKGSNFLYEIERVIGGPSVFEPFLPFYFRKFAKSTVNEVKFKHALYEYFSPLGLASKLDSIDWDTWYHAPGMPPVKPHFDTTLADPCYKLAESWTNSAKNSDDPSKFSSKDIENWSAGQKSLFLDVVYEAVSFPHNYIKRMGDVYSFAESKNAELSFRFFKLALKSKYKPLYNTIAERVGSVGRMKFVRPIFRLLNEADRAFAIETFEKYKHFYHKICASQVEKDLGLSE
As to B1, the binding result in the test with Ape4-TAP (S. pombe) and with Ams1-mCherry (S. pombe) was “no binding” in each case.

B2: Nbr1(53-129) of the Ape4-Nbr1 fusion protein (domain or fragment, UniProt Q9P792 53-129)
chain: PTLRSSSVACNTCLKIIRNDSFHCTKCFDFDVCRDCYAKQAFLHPCPKPHFVLVRSSIPSVASLTCSVNSMSVSPQS
Turning to B2, the binding entry in test [2] was “binds”.

B3: Nbr1(53-180) of the Ams1-Nbr1 fusion protein (domain or fragment, UniProt Q9P792 53-180)
chain: PTLRSSSVACNTCLKIIRNDSFHCTKCFDFDVCRDCYAKQAFLHPCPKPHFVLVRSSIPSVASLTCSVNSMSVSPQSNFMYAICDHCEQPIHNVRYKCSVCDDYDICESCLTDNSHSNTHAFVRITKA
In the case of B3, the binding result in test [3] is “binds”.

B4: Endogenously TAP-tagged Nbr1 (protein, UniProt Q9P792 1-397)
chain: MLCNRTCPSSDCGILCNHSVPSFPPFHSSVANIHFTKENNLKSNIFEHNNNSPTLRSSSVACNTCLKIIRNDSFHCTKCFDFDVCRDCYAKQAFLHPCPKPHFVLVRSSIPSVASLTCSVNSMSVSPQSNFMYAICDHCEQPIHNVRYKCSVCDDYDICESCLTDNSHSNTHAFVRITKAYPHGLPSFHLFPQFLSAELFESASTVHRSVQCDNCLAHPIVGPRFHCLVCEDYDLCSSCVSHVHHDHHSMLRLTREISASPLHLSKPEKPKVLNFDFKLVEDSILPLELSPGCPFYKIWHIRNTSCQSWPSPLYVKFNGGDKLFPGDNPYSFPITSSVHPGEDVNFTVALKVPEKSNKEIFTAFFNICSDDGSVFHKSLCAFLRVPKSFSRISKSSF
Turning to B4, the binding entry with Ams1-mCherry (S. pombe) is given as “binds”.
